Assay results from the supplement of paper PMC10849652.
The list shows a part of the results.

Chains of the proteins cited; added tags and fusions are not shown. Lines headed by an entry give the natural chain unless they say otherwise; changes in a name come on top.
UniProt Q9Y4X5: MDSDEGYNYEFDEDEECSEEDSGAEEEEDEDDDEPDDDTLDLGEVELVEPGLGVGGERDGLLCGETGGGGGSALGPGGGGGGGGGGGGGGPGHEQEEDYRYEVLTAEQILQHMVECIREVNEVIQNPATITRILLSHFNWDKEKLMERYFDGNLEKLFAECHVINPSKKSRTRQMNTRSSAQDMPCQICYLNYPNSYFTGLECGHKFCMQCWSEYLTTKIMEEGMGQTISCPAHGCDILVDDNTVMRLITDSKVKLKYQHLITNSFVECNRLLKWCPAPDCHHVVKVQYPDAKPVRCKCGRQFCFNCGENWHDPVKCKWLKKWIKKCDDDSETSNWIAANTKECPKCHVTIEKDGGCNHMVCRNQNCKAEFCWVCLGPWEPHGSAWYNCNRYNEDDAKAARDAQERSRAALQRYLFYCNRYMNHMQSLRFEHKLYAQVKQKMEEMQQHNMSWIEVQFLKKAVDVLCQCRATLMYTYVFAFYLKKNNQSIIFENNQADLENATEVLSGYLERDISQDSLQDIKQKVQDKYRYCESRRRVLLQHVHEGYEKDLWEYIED
UniProt Q9Y2T2: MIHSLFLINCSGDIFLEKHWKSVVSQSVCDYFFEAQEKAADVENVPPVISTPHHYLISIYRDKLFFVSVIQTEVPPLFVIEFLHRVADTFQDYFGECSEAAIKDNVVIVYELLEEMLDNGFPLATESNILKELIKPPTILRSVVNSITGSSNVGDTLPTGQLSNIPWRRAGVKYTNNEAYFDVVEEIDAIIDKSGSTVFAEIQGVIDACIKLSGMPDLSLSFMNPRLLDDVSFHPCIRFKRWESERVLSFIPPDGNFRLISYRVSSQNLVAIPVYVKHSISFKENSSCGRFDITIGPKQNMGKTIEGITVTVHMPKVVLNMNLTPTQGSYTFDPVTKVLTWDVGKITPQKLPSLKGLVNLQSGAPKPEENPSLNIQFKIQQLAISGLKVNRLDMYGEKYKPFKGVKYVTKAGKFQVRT
UniProt P10398: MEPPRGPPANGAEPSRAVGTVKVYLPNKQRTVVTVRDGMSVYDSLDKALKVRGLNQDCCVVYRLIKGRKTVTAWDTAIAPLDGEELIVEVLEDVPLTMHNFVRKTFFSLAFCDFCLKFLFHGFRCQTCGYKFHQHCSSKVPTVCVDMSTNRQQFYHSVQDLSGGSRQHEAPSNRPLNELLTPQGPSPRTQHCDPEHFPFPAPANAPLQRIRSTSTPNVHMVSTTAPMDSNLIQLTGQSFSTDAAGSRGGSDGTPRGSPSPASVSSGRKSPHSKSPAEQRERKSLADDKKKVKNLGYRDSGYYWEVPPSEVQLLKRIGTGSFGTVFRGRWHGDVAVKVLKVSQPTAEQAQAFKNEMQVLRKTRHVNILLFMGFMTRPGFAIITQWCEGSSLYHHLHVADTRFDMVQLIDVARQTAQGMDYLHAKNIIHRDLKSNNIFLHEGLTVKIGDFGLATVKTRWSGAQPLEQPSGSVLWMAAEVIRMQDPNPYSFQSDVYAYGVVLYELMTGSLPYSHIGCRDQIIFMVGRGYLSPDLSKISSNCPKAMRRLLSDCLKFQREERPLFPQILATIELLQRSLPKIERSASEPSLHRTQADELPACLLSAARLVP
UniProt Q92888: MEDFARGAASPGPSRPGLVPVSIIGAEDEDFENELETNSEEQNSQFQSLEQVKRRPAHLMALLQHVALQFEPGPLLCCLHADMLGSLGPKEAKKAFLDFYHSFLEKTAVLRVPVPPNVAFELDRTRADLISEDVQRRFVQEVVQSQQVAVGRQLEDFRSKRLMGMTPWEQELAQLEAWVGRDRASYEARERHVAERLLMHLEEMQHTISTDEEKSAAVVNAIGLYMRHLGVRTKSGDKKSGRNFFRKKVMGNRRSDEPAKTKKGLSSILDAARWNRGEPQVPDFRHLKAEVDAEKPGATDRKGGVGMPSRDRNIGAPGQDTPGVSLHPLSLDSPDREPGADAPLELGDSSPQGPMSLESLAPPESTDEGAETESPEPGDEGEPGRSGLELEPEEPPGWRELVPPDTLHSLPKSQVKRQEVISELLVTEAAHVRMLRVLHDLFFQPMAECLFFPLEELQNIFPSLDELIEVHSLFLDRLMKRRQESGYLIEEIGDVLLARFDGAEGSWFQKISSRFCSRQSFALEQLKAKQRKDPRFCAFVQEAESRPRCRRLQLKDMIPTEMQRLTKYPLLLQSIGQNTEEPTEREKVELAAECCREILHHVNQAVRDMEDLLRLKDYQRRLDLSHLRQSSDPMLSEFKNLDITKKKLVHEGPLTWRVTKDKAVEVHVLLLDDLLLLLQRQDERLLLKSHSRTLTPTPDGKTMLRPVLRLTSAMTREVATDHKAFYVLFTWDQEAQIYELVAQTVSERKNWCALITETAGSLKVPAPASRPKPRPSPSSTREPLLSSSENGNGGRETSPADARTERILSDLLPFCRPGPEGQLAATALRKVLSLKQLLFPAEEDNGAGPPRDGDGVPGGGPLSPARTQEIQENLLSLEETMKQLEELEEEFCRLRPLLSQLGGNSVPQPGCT
UniProt Q63HQ0: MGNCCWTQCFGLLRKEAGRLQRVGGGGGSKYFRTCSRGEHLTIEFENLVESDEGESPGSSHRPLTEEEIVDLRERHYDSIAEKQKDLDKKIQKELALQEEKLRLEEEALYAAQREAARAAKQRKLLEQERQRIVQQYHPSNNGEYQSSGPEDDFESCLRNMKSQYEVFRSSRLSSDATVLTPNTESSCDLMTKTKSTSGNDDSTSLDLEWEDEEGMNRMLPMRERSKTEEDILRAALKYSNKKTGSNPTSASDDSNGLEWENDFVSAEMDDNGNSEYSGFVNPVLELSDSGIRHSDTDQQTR
UniProt P04083: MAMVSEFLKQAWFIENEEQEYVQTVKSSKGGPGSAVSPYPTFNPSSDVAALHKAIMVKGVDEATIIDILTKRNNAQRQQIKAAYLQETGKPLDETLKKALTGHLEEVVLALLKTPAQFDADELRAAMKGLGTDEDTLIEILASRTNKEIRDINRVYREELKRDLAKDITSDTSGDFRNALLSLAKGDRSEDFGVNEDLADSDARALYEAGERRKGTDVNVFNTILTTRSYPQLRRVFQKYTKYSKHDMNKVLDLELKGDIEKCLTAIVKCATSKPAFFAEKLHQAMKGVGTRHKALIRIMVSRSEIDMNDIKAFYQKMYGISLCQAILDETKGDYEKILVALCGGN
UniProt O14497, whole entry, looked up: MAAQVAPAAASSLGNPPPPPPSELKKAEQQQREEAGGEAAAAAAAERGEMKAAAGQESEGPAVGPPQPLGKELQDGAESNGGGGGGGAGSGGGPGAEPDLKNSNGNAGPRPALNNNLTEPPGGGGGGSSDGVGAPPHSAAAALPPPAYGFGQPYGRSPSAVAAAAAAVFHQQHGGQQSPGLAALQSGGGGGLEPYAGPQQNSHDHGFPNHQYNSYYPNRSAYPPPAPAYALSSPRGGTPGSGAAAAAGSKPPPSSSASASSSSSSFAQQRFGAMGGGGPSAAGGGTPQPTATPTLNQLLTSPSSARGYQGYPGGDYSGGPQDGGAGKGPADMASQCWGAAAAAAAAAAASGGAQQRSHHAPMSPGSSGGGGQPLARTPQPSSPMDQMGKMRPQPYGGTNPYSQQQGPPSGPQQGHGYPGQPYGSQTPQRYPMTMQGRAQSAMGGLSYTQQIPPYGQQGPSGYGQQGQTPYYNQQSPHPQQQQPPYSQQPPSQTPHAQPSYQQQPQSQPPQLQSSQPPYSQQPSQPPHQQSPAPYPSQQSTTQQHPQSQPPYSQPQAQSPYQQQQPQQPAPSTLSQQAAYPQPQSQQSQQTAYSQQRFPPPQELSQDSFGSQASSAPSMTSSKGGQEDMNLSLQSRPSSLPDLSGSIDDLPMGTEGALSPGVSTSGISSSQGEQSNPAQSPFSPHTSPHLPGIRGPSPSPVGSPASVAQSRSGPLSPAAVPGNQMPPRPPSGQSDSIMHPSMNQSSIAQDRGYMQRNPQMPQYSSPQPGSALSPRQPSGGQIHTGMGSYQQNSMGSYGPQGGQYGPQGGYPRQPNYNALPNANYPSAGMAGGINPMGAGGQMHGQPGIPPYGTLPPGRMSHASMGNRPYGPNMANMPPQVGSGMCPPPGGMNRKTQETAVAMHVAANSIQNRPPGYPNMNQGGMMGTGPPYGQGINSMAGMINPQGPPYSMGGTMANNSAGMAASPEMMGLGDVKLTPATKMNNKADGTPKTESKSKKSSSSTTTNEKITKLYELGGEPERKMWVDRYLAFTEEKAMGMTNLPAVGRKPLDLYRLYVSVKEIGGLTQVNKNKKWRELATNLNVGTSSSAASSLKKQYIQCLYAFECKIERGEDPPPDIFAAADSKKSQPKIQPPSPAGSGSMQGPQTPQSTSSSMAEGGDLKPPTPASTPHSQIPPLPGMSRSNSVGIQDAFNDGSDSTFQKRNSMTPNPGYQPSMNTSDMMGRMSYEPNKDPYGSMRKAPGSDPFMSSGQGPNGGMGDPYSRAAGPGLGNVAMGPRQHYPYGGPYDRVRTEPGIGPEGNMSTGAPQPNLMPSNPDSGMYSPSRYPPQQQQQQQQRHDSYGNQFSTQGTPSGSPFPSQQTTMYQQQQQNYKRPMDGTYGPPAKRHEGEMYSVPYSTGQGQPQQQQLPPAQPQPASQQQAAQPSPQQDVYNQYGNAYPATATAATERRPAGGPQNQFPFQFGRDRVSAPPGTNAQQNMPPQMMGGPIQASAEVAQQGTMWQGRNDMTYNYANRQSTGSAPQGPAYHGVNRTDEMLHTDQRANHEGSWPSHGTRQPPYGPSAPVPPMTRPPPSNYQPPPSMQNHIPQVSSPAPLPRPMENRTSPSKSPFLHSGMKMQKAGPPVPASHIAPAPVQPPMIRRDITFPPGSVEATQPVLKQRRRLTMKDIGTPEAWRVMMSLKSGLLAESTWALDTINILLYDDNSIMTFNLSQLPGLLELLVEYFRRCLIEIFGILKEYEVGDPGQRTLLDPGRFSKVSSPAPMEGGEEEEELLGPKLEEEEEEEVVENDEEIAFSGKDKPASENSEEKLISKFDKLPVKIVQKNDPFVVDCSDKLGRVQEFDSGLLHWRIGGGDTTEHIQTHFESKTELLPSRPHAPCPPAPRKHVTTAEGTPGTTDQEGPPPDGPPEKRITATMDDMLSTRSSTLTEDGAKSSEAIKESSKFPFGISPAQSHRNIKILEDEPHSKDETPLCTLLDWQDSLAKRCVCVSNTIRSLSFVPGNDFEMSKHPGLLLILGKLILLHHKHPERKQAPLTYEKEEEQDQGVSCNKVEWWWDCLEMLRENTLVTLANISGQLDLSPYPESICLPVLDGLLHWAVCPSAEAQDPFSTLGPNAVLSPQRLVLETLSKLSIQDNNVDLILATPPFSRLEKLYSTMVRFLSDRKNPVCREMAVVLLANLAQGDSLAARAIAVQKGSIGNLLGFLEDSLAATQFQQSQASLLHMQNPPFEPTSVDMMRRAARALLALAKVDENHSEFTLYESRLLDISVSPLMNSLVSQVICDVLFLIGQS
UniProt P12429: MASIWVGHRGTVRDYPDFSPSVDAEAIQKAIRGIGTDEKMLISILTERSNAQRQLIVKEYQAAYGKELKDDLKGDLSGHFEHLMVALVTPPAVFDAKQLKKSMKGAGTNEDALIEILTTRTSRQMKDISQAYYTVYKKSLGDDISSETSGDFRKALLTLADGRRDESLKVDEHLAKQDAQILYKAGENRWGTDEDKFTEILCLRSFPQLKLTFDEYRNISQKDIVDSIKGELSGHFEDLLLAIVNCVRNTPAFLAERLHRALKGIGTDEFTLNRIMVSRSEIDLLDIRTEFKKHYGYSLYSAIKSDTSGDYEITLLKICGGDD
UniProt O43747: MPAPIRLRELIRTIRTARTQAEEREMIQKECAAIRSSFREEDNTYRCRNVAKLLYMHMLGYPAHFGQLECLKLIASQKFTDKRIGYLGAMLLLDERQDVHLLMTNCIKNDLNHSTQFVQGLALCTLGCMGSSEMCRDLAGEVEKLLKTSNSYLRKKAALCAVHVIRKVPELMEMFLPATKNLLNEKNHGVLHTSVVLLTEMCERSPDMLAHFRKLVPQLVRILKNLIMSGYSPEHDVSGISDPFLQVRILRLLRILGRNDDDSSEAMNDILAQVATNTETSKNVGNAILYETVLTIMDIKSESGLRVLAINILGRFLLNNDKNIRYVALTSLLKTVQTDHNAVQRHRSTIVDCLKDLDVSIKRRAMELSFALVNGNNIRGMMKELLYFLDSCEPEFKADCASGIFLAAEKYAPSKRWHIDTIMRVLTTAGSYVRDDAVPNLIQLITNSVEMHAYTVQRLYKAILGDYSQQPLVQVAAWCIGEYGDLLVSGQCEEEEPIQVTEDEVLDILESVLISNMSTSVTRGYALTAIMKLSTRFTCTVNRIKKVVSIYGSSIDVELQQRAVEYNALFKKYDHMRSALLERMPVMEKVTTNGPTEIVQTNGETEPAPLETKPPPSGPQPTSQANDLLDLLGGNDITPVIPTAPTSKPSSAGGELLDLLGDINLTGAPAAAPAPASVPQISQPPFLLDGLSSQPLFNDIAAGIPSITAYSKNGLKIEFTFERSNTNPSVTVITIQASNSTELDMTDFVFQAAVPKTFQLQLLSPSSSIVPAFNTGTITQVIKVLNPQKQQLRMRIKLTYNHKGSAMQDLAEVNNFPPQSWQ

Columns and labels:
Test in all cases: log2 fold change, soluble protein after heating vs DMSO (PISA); higher = thermal stabilisation; K562 cells, 10 uM, 30 min; active = over 0.2 and 3.5 SD of the protein, either way, in both replicates (recomputed)
[1] = compound: COC1=CC=C(C=C1)CN2C=CC3=C2C=C(C=C3)C(=O)NO
Procedure, shortened: (§1)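 Quantification of soluble protein used TMTpro 16plex LC-MS/MS, with channel sums equalised. Samples were the supernatant after 21,000xg for 90 min of pooled aliquots from K562 cells (2×10^6 cells/mL) treated with 10 μM compound for 30 min, heated for 3 min over 48°C-58°C, and extracted in PBS with 0.5% NP-40 at 4°C. Values, from duplicates, describe thermal stability against control samples on a log2 fold-change scale.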

filanesib = compound: CON(C)C(=O)N1N=C(c2cc(F)ccc2F)S[C@@]1(CCCN)c1ccccc1 [filanesib]
Procedure, shortened: as §1

zotarolimus = compound: CO[C@H]1C[C@@H]2CC[C@@H](C)[C@@](O)(O2)C(=O)C(=O)N2CCCC[C@H]2C(=O)O[C@H]([C@H](C)C[C@@H]2CC[C@H](n3cnnn3)[C@H](OC)C2)CC(=O)[C@H](C)/C=C(\C)[C@@H](O)[C@@H](OC)C(=O)[C@H](C)C[C@H](C)/C=C/C=C/C=C/1C [zotarolimus]
Procedure, shortened: as §1

idasanutlin = compound: COc1cc(C(=O)O)ccc1NC(=O)[C@@H]1N[C@@H](CC(C)(C)C)[C@](C#N)(c2ccc(Cl)cc2F)[C@H]1c1cccc(Cl)c1F [idasanutlin]
Procedure, shortened: as §1

alisertib = compound: COc1cc(Nc2ncc3c(n2)-c2ccc(Cl)cc2C(c2c(F)cccc2OC)=NC3)ccc1C(=O)O [alisertib]
Procedure, shortened: as §1

[2] = compound: COc1cc2nc(-c3cc(F)ccc3O)nc(N[C@@H]3CNC[C@H]3C(C)(C)O)c2cc1OC
Procedure, shortened: as §1

gefitinib = compound: COc1cc2ncnc(Nc3ccc(F)c(Cl)c3)c2cc1OCCCN1CCOCC1 [gefitinib]
Procedure, shortened: as §1

[3] = compound: COc1cccc2cc(-c3nc([C@H]4CC[C@H](C(=O)O)CC4)n4ncnc(N)c34)[nH]c12
Procedure, shortened: as §1

lapatinib = compound: CS(=O)(=O)CCNCc1ccc(-c2ccc3ncnc(Nc4ccc(OCc5cccc(F)c5)c(Cl)c4)c3c2)o1 [lapatinib]
Procedure, shortened: as §1

pictilisib = compound: CS(=O)(=O)N1CCN(Cc2cc3nc(-c4cccc5[nH]ncc45)nc(N4CCOCC4)c3s2)CC1 [pictilisib]
Procedure, shortened: as §1

Measured: log2 fold change

ARFGAP2 (UniProt Q8N6H7)
inactive: [1] -0.067 | filanesib 0.024 | zotarolimus -0.005 | idasanutlin -0.029 | alisertib -0.058 | [2] 0.156 | gefitinib -0.004 | [3] -0.064 | lapatinib -0.001 | pictilisib 0.013

ARIH1 (UniProt Q9Y4X5)
inactive: [1] 0.043 | filanesib -0.015 | zotarolimus 0.008 | idasanutlin -0.036 | alisertib 0.008 | [2] 0.001 | gefitinib -0.026 | [3] 0.025 | lapatinib -0.036 | pictilisib 0.021

ANTXR2 isoform 4 (UniProt P58335)
inactive: [1] 0.025 | filanesib 0.014 | zotarolimus -0.016 | idasanutlin 0.019 | alisertib -0.015 | [2] -0.034 | gefitinib 0.01 | [3] 0.064 | lapatinib -0.018 | pictilisib 0.09

ANAPC2 (UniProt Q9UJX6)
inactive: [1] 0.026 | filanesib -0.042 | zotarolimus 0.012 | idasanutlin -0.047 | alisertib -0.074 | [2] -0.038 | gefitinib -0.034 | [3] -0.004 | lapatinib 0.059 | pictilisib 0.015

ANKRD13A (UniProt Q8IZ07)
inactive: [1] -0.024 | filanesib 0.056 | zotarolimus -0.025 | idasanutlin -0.018 | alisertib -0.102 | [2] -0.047 | gefitinib 0.035 | [3] 0.024 | lapatinib 0.05 | pictilisib 0.046

AP3M1 (UniProt Q9Y2T2)
inactive: [1] 0.023 | filanesib -0.04 | zotarolimus 0.001 | idasanutlin -0.054 | alisertib -0.037 | [2] 0.008 | gefitinib -0.043 | [3] -0.006 | lapatinib 0.011 | pictilisib -0.034

AP5Z1 (UniProt O43299)
inactive: [1] -0.332 | filanesib 0.065 | zotarolimus -0.05 | idasanutlin 0.098 | alisertib -0.081 | [2] 0.167 | gefitinib -0.018 | [3] 0.05 | lapatinib -0.092 | pictilisib -0.081

ANKMY2 (UniProt Q8IV38)
inactive: [1] 0.037 | filanesib -0.029 | zotarolimus -0.005 | idasanutlin -0.039 | alisertib -0.029 | [2] -0.02 | gefitinib 0.016 | [3] -0.036 | lapatinib 0.027 | pictilisib -0.034

APOA1 (UniProt P02647)
inactive: [1] 0.118 | filanesib 0.152 | zotarolimus 0.126 | idasanutlin -0.309 | alisertib -0.026 | [2] -0.019 | gefitinib 0.029 | [3] 0.233 | lapatinib 0.057 | pictilisib 0.064

ARFIP1 (UniProt P53367)
inactive: [1] 0.354 | filanesib -0.049 | zotarolimus -0.021 | idasanutlin 0.094 | alisertib 1.31 | [2] 0.042 | gefitinib -0.091 | [3] -0.005 | lapatinib -0.076 | pictilisib -0.076

ARAF (UniProt P10398)
inactive: [1] 0 | filanesib -0.022 | zotarolimus 0.06 | idasanutlin 0.006 | alisertib 0.076 | gefitinib 0.076 | [3] 0.06 | lapatinib 0.076 | pictilisib -0.175
active: [2] -0.274

ARHGEF1 isoform 3 (UniProt Q92888)
inactive: [1] 0.006 | filanesib 0.197 | zotarolimus 0.077 | idasanutlin 0.126 | alisertib -0.053 | [2] -0.031 | gefitinib 0.031 | [3] -0.111 | lapatinib 0.021 | pictilisib 0.007

APOE (UniProt P02649)
inactive: [1] 0.017 | filanesib -0.042 | zotarolimus 0.021 | idasanutlin -0.051 | alisertib -0.047 | [2] -0.121 | gefitinib 0.082 | [3] 0.089 | lapatinib 0.055 | pictilisib 0.021

ARFGAP3 (UniProt Q9NP61)
inactive: [1] 0.028 | filanesib 0.038 | zotarolimus -0.019 | idasanutlin -0.065 | alisertib -0.021 | [2] 0.079 | gefitinib -0.018 | [3] 0.01 | lapatinib 0.039 | pictilisib -0.021

ARFIP2 (UniProt P53365)
inactive: [1] -0.148 | filanesib -0.152 | zotarolimus -0.083 | idasanutlin 0.009 | alisertib 0.061 | [2] -0.131 | gefitinib -0.074 | [3] 0.062 | lapatinib -0.014 | pictilisib -0.09

ARHGAP17 (UniProt Q68EM7)
inactive: [1] -0.005 | filanesib 0.07 | zotarolimus 0.094 | idasanutlin 0.101 | alisertib 0.317 | [2] 0.027 | gefitinib -0.003 | [3] -0.113 | lapatinib -0.017 | pictilisib -0.175

AP1AR (UniProt Q63HQ0)
inactive: [1] -0.056 | filanesib 0.078 | zotarolimus 0.009 | idasanutlin -0.025 | alisertib -0.125 | [2] 0.021 | gefitinib 0.115 | [3] -0.009 | lapatinib -0.059 | pictilisib 0.096

Pulled one by one from above, 2 records:
ARFIP2 (UniProt P53365)
inactive: [1] -0.148 | filanesib -0.152 | zotarolimus -0.083 | idasanutlin 0.009 | alisertib 0.061 | [2] -0.131 | gefitinib -0.074 | [3] 0.062 | lapatinib -0.014 | pictilisib -0.09

ARHGEF1 isoform 3 (UniProt Q92888)
inactive: [1] 0.006 | filanesib 0.197 | zotarolimus 0.077 | idasanutlin 0.126 | alisertib -0.053 | [2] -0.031 | gefitinib 0.031 | [3] -0.111 | lapatinib 0.021 | pictilisib 0.007

(further entries)

ANXA1 (UniProt P04083)
inactive: [1] 0.04 | filanesib -0.077 | zotarolimus 0.041 | idasanutlin -0.041 | alisertib 0.101 | [2] 0.07 | gefitinib 0.033 | [3] -0.037 | lapatinib -0.048 | pictilisib 0.06

ARF4 (UniProt P18085)
inactive: [1] 0.007 | filanesib -0.061 | zotarolimus 0.006 | idasanutlin -0.153 | alisertib -0.023 | [2] 0.17 | gefitinib -0.005 | [3] 0.019 | lapatinib 0.037 | pictilisib 0.035

ARID1A (UniProt O14497)
inactive: [1] 0.238 | filanesib -0.106 | zotarolimus -0.014 | idasanutlin 0.119 | alisertib -0.119 | [2] -0.012 | gefitinib 0.047 | [3] 0.072 | lapatinib 0.019 | pictilisib 0.022

AP2M1 (UniProt Q96CW1)
inactive: [1] -0.008 | filanesib 0.048 | zotarolimus 0.017 | idasanutlin -0.018 | alisertib -0.06 | [2] 0.01 | gefitinib 0.032 | [3] 0.01 | lapatinib 0.014 | pictilisib -0.021

APOO (UniProt Q9BUR5)
inactive: [1] 0.085 | filanesib -0.099 | zotarolimus -0.002 | idasanutlin -0.02 | alisertib -0.111 | [2] -0.111 | gefitinib -0.004 | [3] 0.035 | lapatinib 0.007 | pictilisib -0.021

ARHGAP18 (UniProt Q8N392)
inactive: [1] 0.106 | filanesib 0.018 | zotarolimus 0.022 | idasanutlin -0.08 | alisertib -0.056 | [2] 0.244 | gefitinib -0.02 | [3] -0.076 | lapatinib -0.025 | pictilisib 0.107

ANAPC7 (UniProt Q9UJX3)
inactive: [1] 0.028 | filanesib 0.013 | zotarolimus 0.063 | idasanutlin -0.005 | alisertib -0.134 | [2] -0.001 | gefitinib -0.03 | [3] -0.055 | lapatinib 0.023 | pictilisib -0.051

ANXA5 (UniProt P08758)
inactive: [1] 0.033 | filanesib -0.033 | zotarolimus 0.049 | idasanutlin -0.013 | alisertib -0.006 | [2] 0.009 | gefitinib 0.05 | [3] -0.032 | lapatinib 0.015 | pictilisib -0.021

ANXA3 (UniProt P12429)
inactive: [1] -0.03 | filanesib -0.075 | zotarolimus -0.002 | idasanutlin -0.058 | alisertib -0.007 | [2] 0.002 | gefitinib -0.006 | [3] 0.037 | lapatinib 0.029 | pictilisib -0.056

AP1G1 isoform 2 (UniProt O43747)
inactive: [1] 0.11 | filanesib -0.038 | zotarolimus 0.054 | idasanutlin -0.084 | alisertib -0.043 | [2] -0.011 | gefitinib 0.017 | [3] -0.015 | lapatinib 0.034 | pictilisib 0.002

APLP2 (UniProt Q06481)
active: filanesib 0.219
inactive: [1] 0.036 | zotarolimus 0.002 | idasanutlin 0.058 | alisertib -0.039 | [2] 0.038 | gefitinib 0.106 | [3] -0.04 | lapatinib 0.09 | pictilisib 0.091

ANP32E (UniProt Q9BTT0)
inactive: [1] 0.027 | filanesib 0.011 | zotarolimus 0.066 | idasanutlin 0.061 | alisertib 0.045 | [2] -0.039 | gefitinib 0.021 | [3] -0.027 | lapatinib -0.011 | pictilisib 0.06
